In patent publication US20090298843A1, “TREATMENT OF HEMATOLOGICAL MALIGNANCIES WITH FTS AND A BCR-ABL TYROSINE KINASE INHIBITOR” (RAMOT AT TEL AVIV UNIVERSITY LTD., priority 2006, published 2009):
pIC50: −log10 of the molar value.

System: K562 cells (Human, CML)
Test: cells
Conditions: K562, read-out: IC50, decrease in the number of K562 cells

pIC50: ~6.76
Structure (SMILES): Cc1ccc(NC(=O)c2ccc(CN3CCN(C)CC3)cc2)cc1Nc1nccc(-c2cccnc2)n1 [GLEEVEC, reference compound]
